Test results reported in US10640547B2, “Immunotherapy against melanoma and other cancers” (IMMATICS BIOTECHNOLOGIES GMBH, priority 2016, dated 2020).

Test system: HLA molecules of melanoma, other tumor and normal tissue samples
Assay: Identification and relative quantitation of tumor associated peptides presented on the cell surface (HLA immunoprecipitation, label-free LC-MS)
Set-up: species or system human; key to Peptide Presentation (presentation score): very highly over-presented on tumors compared to a panel of normal tissues (+++); highly over-presented on tumors compared to a panel of normal tissues (++); over-presented on tumors compared to a panel of normal tissues (+)
Settings: for Peptide Presentation (presentation score): over-presentation on tumors compared to a panel of normal tissues; for Additional Entities (additional tumor types on which the peptide was found) / relevant organs/diseases (additional tumor types on which the peptide was found): over-presented on more than 5% of the measured tumor samples, or presented on more than 5% with ratio of geometric means tumor vs normal tissues larger than 3

Substance: 211 (FLPFLTTEV; listed as Homo sapiens) [compound 211]
- Peptide Presentation (presentation score): +
- Additional Entities (additional tumor types on which the peptide was found): SCLC, HNSCC
- relevant organs/diseases (additional tumor types on which the peptide was found): HCC, CLL, NHL, AML, OC, Uterine Cancer

Substance: 212 (LLKDSIVQL; listed as Homo sapiens) [compound 212]
- Peptide Presentation (presentation score): +
- Additional Entities (additional tumor types on which the peptide was found): GC, HCC, AML, NHL
- relevant organs/diseases (additional tumor types on which the peptide was found): RCC, CLL, Urinary bladder cancer

Substance: 213 (LLDPTNVFI; listed as Homo sapiens) [compound 213]
- Peptide Presentation (presentation score): +
- Additional Entities (additional tumor types on which the peptide was found): GC, OC, Esophageal Cancer, HNSCC
- relevant organs/diseases (additional tumor types on which the peptide was found): PrC, NHL, AML, Urinary bladder cancer

Substance: 214 (VLMEMSYRL; listed as Homo sapiens) [compound 214]
- Peptide Presentation (presentation score): +
- Additional Entities (additional tumor types on which the peptide was found): NSCLC, HNSCC
- relevant organs/diseases (additional tumor types on which the peptide was found): SCLC, RCC, CRC, CLL, NHL, AML, BRCA, Urinary bladder cancer, Gallbladder Cancer, Bile Duct Cancer

Substance: 215 (EVISKLYAV; listed as Homo sapiens) [compound 215]
- Peptide Presentation (presentation score): +
- Additional Entities (additional tumor types on which the peptide was found): RCC, GC, HCC
- relevant organs/diseases (additional tumor types on which the peptide was found): BRCA, Urinary bladder cancer

Substance: 216 (TLLHFLAEL; listed as Homo sapiens) [compound 216]
- Peptide Presentation (presentation score): ++
- relevant organs/diseases (additional tumor types on which the peptide was found): CLL, NHL

Substance: 217 (NMMSGISSV; listed as Homo sapiens) [compound 217]
- Peptide Presentation (presentation score): ++
- Additional Entities (additional tumor types on which the peptide was found): BRCA, HNSCC
- relevant organs/diseases (additional tumor types on which the peptide was found): Brain Cancer, CRC, Urinary bladder cancer, Uterine Cancer, Gallbladder Cancer, Bile Duct Cancer

Substance: 218 (STLHLVLRL; listed as Homo sapiens) [compound 218]
- Peptide Presentation (presentation score): +
- relevant organs/diseases (additional tumor types on which the peptide was found): RCC, GC, HCC, PC

Substance: 219 (FLDSEVSEL; listed as Homo sapiens) [compound 219]
- Additional Entities (additional tumor types on which the peptide was found): SCLC, GC
- relevant organs/diseases (additional tumor types on which the peptide was found): NHL, AML, Urinary bladder cancer, Uterine Cancer

Substance: 220 (SAAEPTPAV; listed as Homo sapiens) [compound 220]
- Additional Entities (additional tumor types on which the peptide was found): HCC
- relevant organs/diseases (additional tumor types on which the peptide was found): Gallbladder Cancer, Bile Duct Cancer

Substance: 221 (SLLPTEQPRL; listed as Homo sapiens) [compound 221]
- Peptide Presentation (presentation score): ++
- Additional Entities (additional tumor types on which the peptide was found): HNSCC
- relevant organs/diseases (additional tumor types on which the peptide was found): NSCLC, SCLC, Brain Cancer, CRC, HCC, PrC, CLL, NHL, Esophageal Cancer, Urinary bladder cancer, Uterine Cancer, Gallbladder Cancer, Bile Duct Cancer

Substance: 222 (LLSEIEEHL; listed as Homo sapiens) [compound 222]
- relevant organs/diseases (additional tumor types on which the peptide was found): CLL

Substance: 223 (FLETNVPLL; listed as Homo sapiens) [compound 223]
- Peptide Presentation (presentation score): +
- relevant organs/diseases (additional tumor types on which the peptide was found): Uterine Cancer, Gallbladder Cancer, Bile Duct Cancer

Substance: 224 (ILDEPTNHL; listed as Homo sapiens) [compound 224]
- Peptide Presentation (presentation score): +
- Additional Entities (additional tumor types on which the peptide was found): Uterine Cancer
- relevant organs/diseases (additional tumor types on which the peptide was found): CLL
